Reference: the supplement of paper PMC6411743
± gives the standard deviation of the averaged measurements. The entries are a selection whose mix differs from that of the whole data set.

The chains behind the UniProt entries cited, without tags or fusion partners. Where a name states a change or a piece, a line headed by the entry shows the natural chain unless it says otherwise.
UniProt Q9BXP2: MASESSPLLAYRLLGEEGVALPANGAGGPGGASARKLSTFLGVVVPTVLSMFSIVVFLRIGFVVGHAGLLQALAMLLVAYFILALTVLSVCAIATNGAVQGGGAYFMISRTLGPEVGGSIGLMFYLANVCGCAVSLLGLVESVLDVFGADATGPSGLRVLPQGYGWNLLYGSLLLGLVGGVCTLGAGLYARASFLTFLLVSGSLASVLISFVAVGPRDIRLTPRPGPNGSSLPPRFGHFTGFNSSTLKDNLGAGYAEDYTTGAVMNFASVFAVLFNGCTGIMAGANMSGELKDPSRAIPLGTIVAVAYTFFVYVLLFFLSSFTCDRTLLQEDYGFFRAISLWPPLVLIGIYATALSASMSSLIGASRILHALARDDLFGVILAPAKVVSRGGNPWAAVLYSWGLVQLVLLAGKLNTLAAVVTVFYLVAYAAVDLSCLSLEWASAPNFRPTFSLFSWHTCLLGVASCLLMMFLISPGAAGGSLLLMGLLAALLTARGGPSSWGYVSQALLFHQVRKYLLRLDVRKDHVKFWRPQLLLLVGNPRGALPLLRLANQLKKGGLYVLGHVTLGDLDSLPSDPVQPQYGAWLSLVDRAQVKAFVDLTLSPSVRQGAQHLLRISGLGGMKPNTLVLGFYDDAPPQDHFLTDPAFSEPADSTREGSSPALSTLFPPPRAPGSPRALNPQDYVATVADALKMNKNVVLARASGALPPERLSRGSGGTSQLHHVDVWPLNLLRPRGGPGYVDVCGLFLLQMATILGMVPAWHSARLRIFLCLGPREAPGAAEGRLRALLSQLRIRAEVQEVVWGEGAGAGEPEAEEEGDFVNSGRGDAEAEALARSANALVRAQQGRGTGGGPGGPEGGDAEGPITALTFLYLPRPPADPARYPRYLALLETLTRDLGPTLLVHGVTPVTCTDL
UniProt Q9BT22: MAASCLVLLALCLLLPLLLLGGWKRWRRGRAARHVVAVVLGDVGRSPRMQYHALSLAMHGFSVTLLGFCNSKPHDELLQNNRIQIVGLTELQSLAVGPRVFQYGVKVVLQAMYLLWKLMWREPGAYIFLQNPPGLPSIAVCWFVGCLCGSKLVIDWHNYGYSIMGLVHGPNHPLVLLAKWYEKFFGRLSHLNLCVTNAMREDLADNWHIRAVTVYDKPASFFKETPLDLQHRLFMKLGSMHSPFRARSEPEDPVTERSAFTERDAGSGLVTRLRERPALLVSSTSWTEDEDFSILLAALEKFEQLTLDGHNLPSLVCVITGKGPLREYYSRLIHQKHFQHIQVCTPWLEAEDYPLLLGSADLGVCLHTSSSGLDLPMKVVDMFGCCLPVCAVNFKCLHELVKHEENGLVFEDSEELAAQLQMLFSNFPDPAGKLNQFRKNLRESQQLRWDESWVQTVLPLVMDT
UniProt Q99757: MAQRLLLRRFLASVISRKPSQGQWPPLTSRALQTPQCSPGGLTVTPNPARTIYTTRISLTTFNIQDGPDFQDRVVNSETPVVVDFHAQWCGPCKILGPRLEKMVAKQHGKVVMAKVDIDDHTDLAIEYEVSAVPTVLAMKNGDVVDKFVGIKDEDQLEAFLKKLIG
UniProt Q9BXK1: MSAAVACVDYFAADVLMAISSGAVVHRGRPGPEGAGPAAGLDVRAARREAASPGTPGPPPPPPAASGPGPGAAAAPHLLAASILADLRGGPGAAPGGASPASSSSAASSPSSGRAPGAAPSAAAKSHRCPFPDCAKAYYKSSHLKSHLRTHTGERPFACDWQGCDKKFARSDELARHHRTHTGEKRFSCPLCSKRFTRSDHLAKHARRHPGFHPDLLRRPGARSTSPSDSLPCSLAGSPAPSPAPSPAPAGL
UniProt Q9BUR4: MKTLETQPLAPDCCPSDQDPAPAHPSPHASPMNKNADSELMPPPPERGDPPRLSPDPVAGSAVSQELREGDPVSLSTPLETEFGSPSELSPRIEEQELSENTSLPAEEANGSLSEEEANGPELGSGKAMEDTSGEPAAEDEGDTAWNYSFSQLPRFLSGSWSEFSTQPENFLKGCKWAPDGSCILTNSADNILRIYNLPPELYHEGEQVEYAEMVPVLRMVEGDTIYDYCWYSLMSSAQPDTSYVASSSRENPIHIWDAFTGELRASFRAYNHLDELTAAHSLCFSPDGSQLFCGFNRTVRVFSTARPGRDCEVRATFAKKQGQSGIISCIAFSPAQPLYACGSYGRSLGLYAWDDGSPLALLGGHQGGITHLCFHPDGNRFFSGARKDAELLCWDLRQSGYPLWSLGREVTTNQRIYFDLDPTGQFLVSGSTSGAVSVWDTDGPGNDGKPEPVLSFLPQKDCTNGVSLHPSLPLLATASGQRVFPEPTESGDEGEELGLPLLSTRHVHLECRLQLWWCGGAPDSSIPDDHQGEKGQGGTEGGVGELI
UniProt Q99996, whole entry: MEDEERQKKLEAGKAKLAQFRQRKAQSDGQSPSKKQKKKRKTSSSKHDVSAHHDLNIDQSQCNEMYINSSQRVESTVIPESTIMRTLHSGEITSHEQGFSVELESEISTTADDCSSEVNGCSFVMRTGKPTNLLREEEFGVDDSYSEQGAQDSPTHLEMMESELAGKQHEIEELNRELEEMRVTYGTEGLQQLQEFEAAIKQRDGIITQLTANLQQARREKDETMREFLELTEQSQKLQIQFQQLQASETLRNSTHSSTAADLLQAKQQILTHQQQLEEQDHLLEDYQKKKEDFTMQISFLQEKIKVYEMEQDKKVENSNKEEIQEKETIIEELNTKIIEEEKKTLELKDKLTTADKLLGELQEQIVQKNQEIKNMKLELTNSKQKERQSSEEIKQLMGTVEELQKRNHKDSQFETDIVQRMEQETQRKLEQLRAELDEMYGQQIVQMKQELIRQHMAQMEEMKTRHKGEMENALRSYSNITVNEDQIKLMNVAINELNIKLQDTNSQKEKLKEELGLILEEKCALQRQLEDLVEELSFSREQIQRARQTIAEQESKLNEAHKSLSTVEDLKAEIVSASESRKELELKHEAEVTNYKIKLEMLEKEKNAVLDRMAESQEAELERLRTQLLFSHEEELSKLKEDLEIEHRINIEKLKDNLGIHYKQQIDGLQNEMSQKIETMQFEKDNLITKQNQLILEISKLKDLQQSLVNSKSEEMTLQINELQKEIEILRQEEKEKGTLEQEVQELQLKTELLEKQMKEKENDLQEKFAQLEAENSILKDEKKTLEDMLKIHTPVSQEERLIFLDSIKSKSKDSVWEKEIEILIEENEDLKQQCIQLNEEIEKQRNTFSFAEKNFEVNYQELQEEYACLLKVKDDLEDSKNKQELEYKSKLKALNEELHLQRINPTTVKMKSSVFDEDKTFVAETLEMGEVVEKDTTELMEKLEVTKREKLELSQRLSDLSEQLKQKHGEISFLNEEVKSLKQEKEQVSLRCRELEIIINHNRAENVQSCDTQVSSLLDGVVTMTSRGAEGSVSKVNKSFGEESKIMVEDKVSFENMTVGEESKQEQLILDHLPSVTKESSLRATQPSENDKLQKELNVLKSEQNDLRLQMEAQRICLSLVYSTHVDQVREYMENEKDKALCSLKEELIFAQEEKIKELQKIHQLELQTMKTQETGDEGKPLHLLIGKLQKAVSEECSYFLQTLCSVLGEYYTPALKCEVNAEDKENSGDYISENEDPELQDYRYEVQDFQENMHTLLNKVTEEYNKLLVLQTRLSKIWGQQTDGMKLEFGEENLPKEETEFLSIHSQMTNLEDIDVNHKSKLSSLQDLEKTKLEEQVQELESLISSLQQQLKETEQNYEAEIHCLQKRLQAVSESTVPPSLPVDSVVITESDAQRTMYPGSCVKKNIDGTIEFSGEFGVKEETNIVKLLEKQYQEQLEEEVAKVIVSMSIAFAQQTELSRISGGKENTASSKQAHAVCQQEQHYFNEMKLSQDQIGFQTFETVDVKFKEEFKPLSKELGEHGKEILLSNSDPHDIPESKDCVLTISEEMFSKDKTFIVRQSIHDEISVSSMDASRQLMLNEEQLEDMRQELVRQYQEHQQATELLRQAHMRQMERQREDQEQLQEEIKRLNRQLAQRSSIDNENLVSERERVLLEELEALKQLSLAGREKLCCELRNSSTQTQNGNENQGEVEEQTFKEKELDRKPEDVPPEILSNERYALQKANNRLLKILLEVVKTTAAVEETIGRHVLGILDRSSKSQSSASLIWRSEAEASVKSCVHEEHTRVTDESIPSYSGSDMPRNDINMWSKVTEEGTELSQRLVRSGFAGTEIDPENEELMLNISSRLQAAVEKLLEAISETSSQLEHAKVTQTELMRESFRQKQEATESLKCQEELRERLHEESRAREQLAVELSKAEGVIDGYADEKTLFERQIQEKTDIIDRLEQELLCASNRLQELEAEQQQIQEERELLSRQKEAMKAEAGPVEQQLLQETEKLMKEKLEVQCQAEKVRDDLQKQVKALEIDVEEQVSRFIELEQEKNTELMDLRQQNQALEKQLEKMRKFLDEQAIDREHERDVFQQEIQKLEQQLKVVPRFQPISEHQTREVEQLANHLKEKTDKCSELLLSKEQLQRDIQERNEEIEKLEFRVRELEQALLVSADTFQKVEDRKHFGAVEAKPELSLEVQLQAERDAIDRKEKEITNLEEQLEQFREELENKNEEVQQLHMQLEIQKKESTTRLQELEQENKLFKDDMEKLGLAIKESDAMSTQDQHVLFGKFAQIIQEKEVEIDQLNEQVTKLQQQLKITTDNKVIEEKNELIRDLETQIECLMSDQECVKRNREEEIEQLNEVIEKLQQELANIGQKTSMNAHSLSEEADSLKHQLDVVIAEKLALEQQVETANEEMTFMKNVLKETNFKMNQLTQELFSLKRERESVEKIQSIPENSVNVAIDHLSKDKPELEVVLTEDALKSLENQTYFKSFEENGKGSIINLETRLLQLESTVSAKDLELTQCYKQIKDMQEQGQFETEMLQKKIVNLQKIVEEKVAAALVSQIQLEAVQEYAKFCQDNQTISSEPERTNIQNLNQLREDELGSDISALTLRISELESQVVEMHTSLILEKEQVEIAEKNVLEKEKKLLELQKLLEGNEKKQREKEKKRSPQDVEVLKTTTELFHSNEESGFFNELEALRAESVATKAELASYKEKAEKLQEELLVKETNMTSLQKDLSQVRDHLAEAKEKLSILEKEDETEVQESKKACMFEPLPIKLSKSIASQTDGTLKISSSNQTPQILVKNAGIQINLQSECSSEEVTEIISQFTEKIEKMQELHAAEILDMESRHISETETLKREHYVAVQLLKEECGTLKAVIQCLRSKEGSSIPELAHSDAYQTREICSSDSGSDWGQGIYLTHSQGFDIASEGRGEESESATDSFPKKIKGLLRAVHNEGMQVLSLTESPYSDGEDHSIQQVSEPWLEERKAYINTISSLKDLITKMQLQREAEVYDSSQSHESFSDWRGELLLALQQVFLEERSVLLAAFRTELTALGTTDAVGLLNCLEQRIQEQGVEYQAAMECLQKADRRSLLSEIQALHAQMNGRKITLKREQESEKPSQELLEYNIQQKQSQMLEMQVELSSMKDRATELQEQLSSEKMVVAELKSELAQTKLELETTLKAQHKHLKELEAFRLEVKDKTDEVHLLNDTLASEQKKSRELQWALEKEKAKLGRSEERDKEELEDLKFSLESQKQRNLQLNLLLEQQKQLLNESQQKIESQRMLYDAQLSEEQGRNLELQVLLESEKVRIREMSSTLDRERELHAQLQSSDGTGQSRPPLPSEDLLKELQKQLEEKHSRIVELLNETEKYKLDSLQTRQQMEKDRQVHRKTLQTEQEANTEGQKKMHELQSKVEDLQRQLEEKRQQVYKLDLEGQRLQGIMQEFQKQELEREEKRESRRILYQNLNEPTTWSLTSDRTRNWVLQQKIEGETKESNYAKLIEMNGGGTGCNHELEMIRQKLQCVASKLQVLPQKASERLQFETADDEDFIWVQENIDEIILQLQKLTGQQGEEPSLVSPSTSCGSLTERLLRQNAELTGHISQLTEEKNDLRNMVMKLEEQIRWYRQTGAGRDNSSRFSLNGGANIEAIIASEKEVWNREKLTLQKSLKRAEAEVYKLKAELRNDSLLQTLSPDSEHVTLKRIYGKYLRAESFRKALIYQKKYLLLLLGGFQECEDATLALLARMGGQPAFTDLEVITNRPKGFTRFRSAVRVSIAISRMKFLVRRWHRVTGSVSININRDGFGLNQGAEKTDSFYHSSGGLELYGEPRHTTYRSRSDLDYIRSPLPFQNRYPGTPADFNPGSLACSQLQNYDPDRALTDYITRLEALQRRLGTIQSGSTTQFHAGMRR
UniProt Q9BZM5, whole entry: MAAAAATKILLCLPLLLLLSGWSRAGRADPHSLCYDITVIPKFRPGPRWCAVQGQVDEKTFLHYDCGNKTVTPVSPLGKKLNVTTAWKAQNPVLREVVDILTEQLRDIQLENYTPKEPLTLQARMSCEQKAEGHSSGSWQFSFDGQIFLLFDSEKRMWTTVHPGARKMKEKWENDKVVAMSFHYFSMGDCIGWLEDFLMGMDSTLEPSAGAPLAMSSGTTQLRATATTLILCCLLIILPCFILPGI

Compound: Nc1ncnc2c1ncn2[C@@H]1O[C@H](COP(=O)(O)OP(=O)(O)OP(=O)(O)O)[C@@H](O)[C@H]1O [adenosine triphosphate]
Experiment: NP40-soluble protein abundance relative to vehicle (solubility fold change) (ratio); higher = more soluble protein in presence of ATP
Summary of the method: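 Jurkat crude lysate prepared with a Dounce homogeniser was treated at eight concentrations spanning 0.1 to 10 mM, 10 min at room temperature then 3 min at 37 °C. Solubilisation with 0.8% NP40 and benzonase and ultracentrifugation preceded TMT labelling of the supernatant for LC-MS/MS. Fold change against the detergent-processed vehicle was determined per replicate from vsn-normalised intensities, across three independent experiments.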

Target	NP40-soluble protein abundance (concentration: 1mM)	NP40-soluble protein abundance (concentration: 2mM)	NP40-soluble protein abundance (concentration: 4mM)	NP40-soluble protein abundance (concentration: 6mM)	NP40-soluble protein abundance (concentration: 8mM)	NP40-soluble protein abundance (concentration: 10mM)
UniProt Q9BSJ2 and related entries	1.15 ± 0.13	1 ± 0.022	1.01 ± 0.044	1.01 ± 0.12	1.09 ± 0.099	1.07 ± 0.11
PI4K2A (UniProt Q9BTU6)	0.987 ± 0.077	1 ± 0.068	0.972 ± 0.047	0.936 ± 0.1	0.986 ± 0.039	0.975 ± 0.06
SLC12A9 (UniProt Q9BXP2)	0.964 ± 0.089	0.984 ± 0.081	1 ± 0.13	0.991 ± 0.049	1.01 ± 0.031	1 ± 0.023
UniProt Q9BRR6 and related entries	1.11 ± 0.085	1.26 ± 0.23	1.1 ± 0.12	1.13 ± 0.12	1.06 ± 0.19	1.05 ± 0.18
CDC5L (UniProt Q99459)	0.979 ± 0.047	0.997 ± 0.036	1.03 ± 0.034	1.13 ± 0.062	1.12 ± 0.058	1.16 ± 0.031
UniProt Q9BT22 and related entries	0.984 ± 0.1	0.971 ± 0.056	0.96 ± 0.078	0.945 ± 0.11	0.993 ± 0.045	0.96 ± 0.087
GTPBP4 (UniProt Q9BZE4)	1.22 ± 0.03	1.261 ± 0.011	1.38 ± 0.067	1.38 ± 0.068	1.42 ± 0.059	1.51 ± 0.059
TXN2 (UniProt Q99757)	0.97 ± 0.079	0.96 ± 0.064	0.85 ± 0.17	0.785 ± 0.29	1.02 ± 0.12	0.913 ± 0.092
GINS3 (UniProt Q9BRX5)	0.976 ± 0.053	0.958 ± 0.064	0.938 ± 0.042	0.989 ± 0.057	0.9293 ± 0.0041	0.887 ± 0.076
HDHD3 (UniProt Q9BSH5)	1.03 ± 0.074	1.02 ± 0.084	0.9699 ± 0.0012	0.925 ± 0.088	1.04 ± 0.038	0.992 ± 0.019
CPPED1 (UniProt Q9BRF8)	1.01 ± 0.082	0.981 ± 0.073	0.973 ± 0.04	0.926 ± 0.1	0.959 ± 0.076	0.945 ± 0.059
UniProt Q99707 and related entries	0.966 ± 0.021	1.01 ± 0.053	0.996 ± 0.042	0.966 ± 0.049	1.01 ± 0.032	0.994 ± 0.048
C16orf70 (UniProt Q9BSU1)	0.975 ± 0.098	0.992 ± 0.097	0.985 ± 0.081	0.898 ± 0.12	1.01 ± 0.096	0.971 ± 0.029
UniProt Q9BQ52 and related entries	1.01 ± 0.025	1 ± 0.018	0.985 ± 0.024	0.958 ± 0.038	0.9823 ± 0.0036	0.994 ± 0.016
PAIP2 (UniProt Q9BPZ3)	0.949 ± 0.068	0.946 ± 0.048	0.91 ± 0.054	0.98 ± 0.04	0.892 ± 0.036	0.871 ± 0.074
KIFC1 (UniProt Q9BW19)	1.05 ± 0.039	1.05 ± 0.025	1.04 ± 0.029	1.11 ± 0.016	1.08 ± 0.025	1.07 ± 0.013
DIDO1 (UniProt Q9BTC0)	1.16 ± 0.073	1.2 ± 0.053	1.24 ± 0.031	1.27 ± 0.072	1.23 ± 0.043	1.31 ± 0.038
COPS4 (UniProt Q9BT78)	0.977 ± 0.048	0.9759 ± 0.0091	0.936 ± 0.01	0.964 ± 0.038	0.977 ± 0.021	0.923 ± 0.043
KLF16 (UniProt Q9BXK1)	0.952 ± 0.12	0.904 ± 0.11	0.941 ± 0.064	0.946 ± 0.14	0.967 ± 0.16	0.962 ± 0.12
C7orf50 (UniProt Q9BRJ6)	1.02 ± 0.034	1.05 ± 0.049	1.06 ± 0.05	1.092 ± 0.0098	1.08 ± 0.068	1.25 ± 0.13
UniProt Q9BRK0-2|B4DE60 and related entries	0.891 ± 0.011	0.873 ± 0.061	0.919 ± 0.096	0.904 ± 0.059	0.801 ± 0.088	0.924 ± 0.072
PELO (UniProt Q9BRX2)	1.01 ± 0.08	0.999 ± 0.058	1 ± 0.038	1.01 ± 0.087	1.06 ± 0.035	1.06 ± 0.034
UniProt Q99941 and related entries	1.05 ± 0.13	1.12 ± 0.016	1.01 ± 0.031	1.11 ± 0.0088	1.02 ± 0.019	1.05 ± 0.033

11 entries from above, as comma-separated lines.
Target,NP40-soluble protein abundance (concentration: 1mM),NP40-soluble protein abundance (concentration: 2mM),NP40-soluble protein abundance (concentration: 4mM),NP40-soluble protein abundance (concentration: 6mM),NP40-soluble protein abundance (concentration: 8mM),NP40-soluble protein abundance (concentration: 10mM)
UniProt Q9BSJ2 and related entries,1.15 ± 0.13,1 ± 0.022,1.01 ± 0.044,1.01 ± 0.12,1.09 ± 0.099,1.07 ± 0.11
PI4K2A (UniProt Q9BTU6),0.987 ± 0.077,1 ± 0.068,0.972 ± 0.047,0.936 ± 0.1,0.986 ± 0.039,0.975 ± 0.06
SLC12A9 (UniProt Q9BXP2),0.964 ± 0.089,0.984 ± 0.081,1 ± 0.13,0.991 ± 0.049,1.01 ± 0.031,1 ± 0.023
TXN2 (UniProt Q99757),0.97 ± 0.079,0.96 ± 0.064,0.85 ± 0.17,0.785 ± 0.29,1.02 ± 0.12,0.913 ± 0.092
HDHD3 (UniProt Q9BSH5),1.03 ± 0.074,1.02 ± 0.084,0.9699 ± 0.0012,0.925 ± 0.088,1.04 ± 0.038,0.992 ± 0.019
KIFC1 (UniProt Q9BW19),1.05 ± 0.039,1.05 ± 0.025,1.04 ± 0.029,1.11 ± 0.016,1.08 ± 0.025,1.07 ± 0.013
COPS4 (UniProt Q9BT78),0.977 ± 0.048,0.9759 ± 0.0091,0.936 ± 0.01,0.964 ± 0.038,0.977 ± 0.021,0.923 ± 0.043
C7orf50 (UniProt Q9BRJ6),1.02 ± 0.034,1.05 ± 0.049,1.06 ± 0.05,1.092 ± 0.0098,1.08 ± 0.068,1.25 ± 0.13
UniProt Q9BRK0-2|B4DE60 and related entries,0.891 ± 0.011,0.873 ± 0.061,0.919 ± 0.096,0.904 ± 0.059,0.801 ± 0.088,0.924 ± 0.072
PELO (UniProt Q9BRX2),1.01 ± 0.08,0.999 ± 0.058,1 ± 0.038,1.01 ± 0.087,1.06 ± 0.035,1.06 ± 0.034
UniProt Q99941 and related entries,1.05 ± 0.13,1.12 ± 0.016,1.01 ± 0.031,1.11 ± 0.0088,1.02 ± 0.019,1.05 ± 0.033

Carrying on:

Target	NP40-soluble protein abundance (concentration: 1mM)	NP40-soluble protein abundance (concentration: 2mM)	NP40-soluble protein abundance (concentration: 4mM)	NP40-soluble protein abundance (concentration: 6mM)	NP40-soluble protein abundance (concentration: 8mM)	NP40-soluble protein abundance (concentration: 10mM)
UniProt Q9BUR4	1.1 ± 0.093	1.11 ± 0.068	1.12 ± 0.15	1.17 ± 0.1	1.21 ± 0.12	1.26 ± 0.18
PDCD2L (UniProt Q9BRP1)	1.04 ± 0.047	1.01 ± 0.063	1.02 ± 0.055	1.04 ± 0.073	0.997 ± 0.031	1.02 ± 0.039
UniProt Q9BXP5-2|Q9BXP5-3|Q9BXP5-4	1.06 ± 0.041	1.08 ± 0.037	1.14 ± 0.051	1.22 ± 0.048	1.22 ± 0.038	1.25 ± 0.033
UniProt Q99828 and related entries	1.04 ± 0.088	1 ± 0.028	1.03 ± 0.05	1.06 ± 0.081	0.992 ± 0.056	1 ± 0.043
UniProt Q99996-3|Q99996-5|A0A0A0MRF6|Q99996 and related entries	1.02 ± 0.067	0.996 ± 0.078	0.993 ± 0.079	1.02 ± 0.18	0.999 ± 0.12	1.01 ± 0.09
UniProt Q9BZ95 and related entries	1.21 ± 0.027	1.55 ± 0.19	1.3 ± 0.044	1.36 ± 0.069	1.33 ± 0.029	1.38 ± 0.055
UniProt Q9C035 and related entries	0.968 ± 0.051	0.937 ± 0.043	0.957 ± 0.082	0.977 ± 0.077	0.926 ± 0.096	0.918 ± 0.059
RNF5 (UniProt Q99942)	0.932 ± 0.043	0.913 ± 0.044	0.925 ± 0.024	0.955 ± 0.049	0.943 ± 0.047	0.898 ± 0.063
UniProt Q9BVP2 and related entries	1.23 ± 0.076	1.27 ± 0.068	1.33 ± 0.071	1.4 ± 0.078	1.49 ± 0.082	1.55 ± 0.14
UniProt Q9BYG3	1.05 ± 0.074	1.05 ± 0.073	1.08 ± 0.12	1.1 ± 0.072	1.15 ± 0.13	1.2 ± 0.098
UniProt Q99549 and related entries	1.02 ± 0.088	1.03 ± 0.027	1.05 ± 0.048	1.13 ± 0.033	1.08 ± 0.032	1.109 ± 0.0081
MRPS26 (UniProt Q9BYN8)	0.999 ± 0.1	0.875 ± 0.093	0.898 ± 0.16	0.848 ± 0.15	0.882 ± 0.11	0.778 ± 0.14
DCTN5 (UniProt Q9BTE1)	0.98 ± 0.05	0.997 ± 0.091	0.976 ± 0.06	0.958 ± 0.074	0.981 ± 0.079	0.995 ± 0.079
UniProt Q9BSR8 and related entries	1.01 ± 0.027	1 ± 0.026	0.987 ± 0.0079	1.01 ± 0.064	0.98 ± 0.044	0.973 ± 0.08
UniProt Q9BUB5 and related entries	1.03 ± 0.028	1.02 ± 0.031	1.01 ± 0.011	1.01 ± 0.03	0.991 ± 0.05	0.998 ± 0.043
UniProt Q99613 and related entries	0.97 ± 0.067	0.988 ± 0.076	1.06 ± 0.09	1.16 ± 0.14	1.24 ± 0.085	1.34 ± 0.12
UniProt Q9BQS8 and related entries	0.983 ± 0.033	0.974 ± 0.01	0.953 ± 0.032	0.97 ± 0.013	0.9267 ± 0.0043	0.969 ± 0.021
ULBP2 (UniProt Q9BZM5)	1 ± 0.04	0.986 ± 0.046	0.987 ± 0.041	1.01 ± 0.027	0.966 ± 0.087	0.951 ± 0.062
KATNAL1 (UniProt Q9BW62)	0.957 ± 0.059	0.935 ± 0.037	0.952 ± 0.044	0.954 ± 0.073	0.939 ± 0.038	0.927 ± 0.051
DCUN1D5 (UniProt Q9BTE7)	1.03 ± 0.092	1.01 ± 0.044	0.967 ± 0.043	0.969 ± 0.1	0.994 ± 0.027	0.964 ± 0.064
CARD11 (UniProt Q9BXL7)	1.01 ± 0.059	1 ± 0.052	1.01 ± 0.029	1.01 ± 0.06	0.944 ± 0.053	0.988 ± 0.027
TCF25 (UniProt Q9BQ70)	1.07 ± 0.025	1.04 ± 0.032	1.13 ± 0.05	1.07 ± 0.083	1.11 ± 0.07	1.14 ± 0.068
